This is one part of the list.
Key:
Experiment in all cases: glycan array binding signal (z-score within array); higher = stronger binding
Details in all cases: glycan notation: IUPAC condensed, linker removed
[1] = target: Gal(b1-4)GlcNAc(b1-2)Man(a1-6)[GlcNAc(b1-2)Man(a1-3)]Man(b1-4)GlcNAc(b1-4)GlcNAc
How it was run: (§1)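 Negative Z-scores can be read as non-binding. The Z-score is calculated within each array and then averaged across arrays of one protein sequence at different concentrations or buffers and across linkers. Arrays, 3228 in all, were curated from the Consortium for Functional Glycomics database and kept only where the protein sequence was available.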

[2] = target: Gal(b1-4)GlcNAc(b1-2)Man(a1-6)[Man(a1-3)]Man(b1-4)GlcNAc(b1-4)GlcNAc
How it was run: as §1

[3] = target: Gal(b1-4)GlcNAc(b1-2)[Gal(b1-4)GlcNAc(b1-4)]Man(a1-3)[Gal(b1-4)GlcNAc(b1-2)Man(a1-6)]Man(b1-4)GlcNAc(b1-4)GlcNAc
How it was run: as §1

[4] = target: Gal(b1-4)GlcNAc(b1-2)[Gal(b1-4)GlcNAc(b1-4)]Man(a1-3)[Gal(b1-4)GlcNAc(b1-2)[Gal(b1-4)GlcNAc(b1-6)]Man(a1-6)]Man(b1-4)GlcNAc(b1-4)GlcNAc
How it was run: as §1

[5] = target: Gal(b1-4)GlcNAc(b1-2)[Gal(b1-4)GlcNAc(b1-4)]Man(a1-3)[GlcNAc(b1-4)][Gal(b1-4)GlcNAc(b1-2)Man(a1-6)]Man(b1-4)GlcNAc(b1-4)GlcNAc
How it was run: as §1

[6] = target: Gal(b1-4)GlcNAc(b1-2)[Gal(b1-4)GlcNAc(b1-4)]Man(a1-3)[GlcNAc(b1-4)][Gal(b1-4)GlcNAc(b1-2)[Gal(b1-4)GlcNAc(b1-6)]Man(a1-6)]Man(b1-4)GlcNAc(b1-4)GlcNAc
How it was run: as §1

[7] = target: Gal(b1-4)GlcNAc(b1-2)[Gal(b1-4)GlcNAc(b1-6)]Man(a1-6)[Gal(b1-4)GlcNAc(b1-2)Man(a1-3)]Man(b1-4)GlcNAc(b1-4)GlcNAc
How it was run: as §1

[8] = target: Gal(b1-4)GlcNAc(b1-2)[Gal(b1-4)GlcNAc(b1-6)]Man(a1-6)[Gal(b1-4)GlcNAc(b1-2)Man(a1-3)]Man(b1-4)GlcNAc(b1-4)[Fuc(a1-6)]GlcNAc
How it was run: as §1

[9] = target: Gal(b1-4)GlcNAc(b1-2)[Gal(b1-4)GlcNAc(b1-6)]Man(a1-6)[GlcNAc(b1-4)][Gal(b1-4)GlcNAc(b1-2)Man(a1-3)]Man(b1-4)GlcNAc(b1-4)GlcNAc
How it was run: as §1

[10] = target: Gal(b1-4)GlcNAc(b1-2)[Gal(b1-4)GlcNAc(b1-6)]Man(a1-6)[GlcNAc(b1-4)][Gal(b1-4)GlcNAc(b1-2)[Gal(b1-4)GlcNAc(b1-4)]Man(a1-3)]Man(b1-4)GlcNAc(b1-4)[Fuc(a1-6)]GlcNAc
How it was run: as §1

[11] = target: Gal(b1-4)GlcNAc(b1-3)Gal(b1-3)GalNAc
How it was run: as §1

[12] = target: Gal(b1-4)GlcNAc(b1-3)Gal(b1-3)GlcNAc
How it was run: as §1

[13] = target: Gal(b1-4)GlcNAc(b1-3)Gal(b1-4)Glc
How it was run: as §1

[14] = target: Gal(b1-4)GlcNAc(b1-3)Gal(b1-4)GlcNAc
How it was run: as §1

[15] = target: Gal(b1-4)GlcNAc(b1-3)Gal(b1-4)GlcNAc(b1-2)Man(a1-3)[Gal(b1-4)GlcNAc(b1-3)Gal(b1-4)GlcNAc(b1-2)Man(a1-6)]Man(b1-4)GlcNAc(b1-4)GlcNAc
How it was run: as §1

[16] = target: Gal(b1-4)GlcNAc(b1-3)Gal(b1-4)GlcNAc(b1-2)Man(a1-3)[Gal(b1-4)GlcNAc(b1-3)Gal(b1-4)GlcNAc(b1-2)Man(a1-6)]Man(b1-4)GlcNAc(b1-4)[Fuc(a1-6)]GlcNAc
How it was run: as §1

[17] = target: Gal(b1-4)GlcNAc(b1-3)Gal(b1-4)GlcNAc(b1-2)[Gal(b1-4)GlcNAc(b1-3)Gal(b1-4)GlcNAc(b1-6)]Man(a1-6)[Gal(b1-4)GlcNAc(b1-3)Gal(b1-4)GlcNAc(b1-2)Man(a1-3)]Man(b1-4)GlcNAc(b1-4)GlcNAc
How it was run: as §1

[18] = target: Gal(b1-4)GlcNAc(b1-3)Gal(b1-4)GlcNAc(b1-2)[Gal(b1-4)GlcNAc(b1-3)Gal(b1-4)GlcNAc(b1-6)]Man(a1-6)[Gal(b1-4)GlcNAc(b1-3)Gal(b1-4)GlcNAc(b1-2)Man(a1-3)]Man(b1-4)GlcNAc(b1-4)[Fuc(a1-6)]GlcNAc
How it was run: as §1

[19] = target: Gal(b1-4)GlcNAc(b1-3)Gal(b1-4)GlcNAc(b1-3)Gal(b1-4)GlcNAc
How it was run: as §1

[20] = target: Gal(b1-4)GlcNAc(b1-3)Gal(b1-4)GlcNAc(b1-3)Gal(b1-4)GlcNAc(b1-2)Man(a1-3)[Gal(b1-4)GlcNAc(b1-3)Gal(b1-4)GlcNAc(b1-3)Gal(b1-4)GlcNAc(b1-2)Man(a1-6)]Man(b1-4)GlcNAc(b1-4)GlcNAc
How it was run: as §1

[21] = target: Gal(b1-4)GlcNAc(b1-3)Gal(b1-4)GlcNAc(b1-3)Gal(b1-4)GlcNAc(b1-2)Man(a1-3)[Gal(b1-4)GlcNAc(b1-3)Gal(b1-4)GlcNAc(b1-3)Gal(b1-4)GlcNAc(b1-2)Man(a1-6)]Man(b1-4)GlcNAc(b1-4)[Fuc(a1-6)]GlcNAc
How it was run: as §1

[22] = target: Gal(b1-4)GlcNAc(b1-3)Gal(b1-4)GlcNAc(b1-3)Gal(b1-4)GlcNAc(b1-2)[Gal(b1-4)GlcNAc(b1-3)Gal(b1-4)GlcNAc(b1-3)Gal(b1-4)GlcNAc(b1-6)]Man(a1-6)[Gal(b1-4)GlcNAc(b1-3)Gal(b1-4)GlcNAc(b1-3)Gal(b1-4)GlcNAc(b1-2)Man(a1-3)]Man(b1-4)GlcNAc(b1-4)[Fuc(a1-6)]GlcNAc
How it was run: as §1

B1: LysMD3 (Homo sapiens), Q7Z3D4 (protein)
chain: MAGRHQNRSFPLPGVQSSGQVHAFGNCSDSDILEEDAEVYELRSRGKEKVRRSTSRDRLDDIIVLTKDIQEGDTLNAIALQYCCTVADIKRVNNLISDQDFFALRSIKIPVKKFSSLTETLCPPKGRQTSRHSSVQYSSEQQEILPANDSLAYSDSAGSFLKEVDRDIEQIVKCTDNKRENLNEVVSALTAQQMRFEPDNKNTQRKDPYYGADWGIG
What does the source list for B1?
glycan array binding signal (z-score) [1]: -1.08; glycan array binding signal (z-score) [2]: -1.01; glycan array binding signal (z-score) [3]: -0.371; glycan array binding signal (z-score) [4]: -1.49; glycan array binding signal (z-score) [5]: 0.234; glycan array binding signal (z-score) [6]: -0.147; glycan array binding signal (z-score) [7]: -1.06; glycan array binding signal (z-score) [8]: 0.202; glycan array binding signal (z-score) [9]: -1.27; glycan array binding signal (z-score) [10]: -0.334; glycan array binding signal (z-score) [11]: -1.05; glycan array binding signal (z-score) [12]: -0.535; glycan array binding signal (z-score) [13]: 0.367; glycan array binding signal (z-score) [14]: 0.194; glycan array binding signal (z-score) [15]: 1.39; glycan array binding signal (z-score) [16]: 0.897; glycan array binding signal (z-score) [17]: -0.473; glycan array binding signal (z-score) [18]: 1.56; glycan array binding signal (z-score) [19]: -0.65; glycan array binding signal (z-score) [20]: 1.65; glycan array binding signal (z-score) [21]: 0.606; glycan array binding signal (z-score) [22]: 0.982
